Results are given in words; binding and its absence hold for the method and conditions named. For part of these data: In cells and extracts the contact can be indirect. Some results given as binding are weak or reduced against the parent protein; the word gives no strength.
Legend:
[1] = target: myocyte enhancer factor 2D (MEF2D), wild type (UniProt Q14814); test: co-IP; CB15 (or CB15 L2172A) and MEF2D or MEF2D fusion proteins co-transfected into HEK293T cells; immunoprecipitation assays
GAL4-MEF2D = GAL4-MEF2D (UniProt Q14814); test: two-hybrid; mammalian two-hybrid in HEK293T cells: pVP16-CABIN1 constructs with pGAL4-MEF2D under a Gal-promoter-luciferase reporter system (Promega); luciferase activity as read-out

Amino acid sequences for entries named in this document (tags omitted). Residues count along the entry.
UniProt Q14814: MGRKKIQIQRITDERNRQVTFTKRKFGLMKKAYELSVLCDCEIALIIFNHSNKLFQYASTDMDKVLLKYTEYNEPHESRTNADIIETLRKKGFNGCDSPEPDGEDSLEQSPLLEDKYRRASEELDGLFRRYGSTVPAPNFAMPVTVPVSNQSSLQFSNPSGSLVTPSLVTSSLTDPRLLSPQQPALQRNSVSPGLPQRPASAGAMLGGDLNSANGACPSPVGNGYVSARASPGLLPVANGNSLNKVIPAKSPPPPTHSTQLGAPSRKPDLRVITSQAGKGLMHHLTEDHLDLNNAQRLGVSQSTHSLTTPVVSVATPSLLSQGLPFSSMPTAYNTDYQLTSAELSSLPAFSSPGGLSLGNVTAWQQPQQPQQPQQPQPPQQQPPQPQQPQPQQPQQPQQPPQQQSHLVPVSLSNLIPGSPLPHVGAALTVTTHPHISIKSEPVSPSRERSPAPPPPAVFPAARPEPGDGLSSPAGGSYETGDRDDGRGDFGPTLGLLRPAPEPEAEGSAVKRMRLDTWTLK
VP16-CABIN1 peptide CB15 (2156-2220) (Q9Y6J0, residues 2156-2220): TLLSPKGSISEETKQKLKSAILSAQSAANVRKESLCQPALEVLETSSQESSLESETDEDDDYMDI
VP16-CABIN1 peptide: CB15 with 10 amino acids removed from the C-terminus (Q9Y6J0, residues 2156-2210): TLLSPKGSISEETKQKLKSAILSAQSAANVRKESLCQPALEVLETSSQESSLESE

Substance	binding [1]	binding (GAL4-MEF2D)
CABIN1_15 (CB15, 2156-2220) (from UniProt Q9Y6J0 2156-2220) (domain or fragment)	binds	
VP16-CABIN1 peptide CB15 (2156-2220) (from UniProt Q9Y6J0 2156-2220) (domain or fragment)		binds
VP16-CABIN1 peptide: CB15 with 10 amino acids removed from the C-terminus (from UniProt Q9Y6J0 2156-2210) (domain or fragment)		binds

From paper PMC12434140
